The supplement of paper PMC12823440, “Inhibitors supercharge kinase turnover through native proteolytic circuits” (Nature, 2025)
Counter-ions that a name gives are not always drawn. This is one part of the list. Hit calls seldom repeat between salt and free forms of one compound.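 Kinases were expressed as nanoluciferase fusions in K562 cells and luminescence was read every 4 h between 2 and 18 h as percent of control, DMSO set to 100% and a positive control to 0%. A time point counts as decreased when the signal drops significantly (2 sigma). The hit call is the authors' own, does not follow from the count of time points alone, and its rule is not shown.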

These compounds were tested against PRKCA (UniProt P17252) (assay: number of time points (of 5) at which kinase-Nluc abundance scored as decreased, DMSO-normalised (count); higher = more persistent destabilization). Settings: K562; 2-18 h.

Row | SMILES | number of time points
1 | C[C@H]1CC[C@]2(NC1)O[C@H]1C[C@H]3[C@@H]4CC[C@H]5C[C@@H](O[C@@H]6O[C@H](CO)[C@H](O[C@@H]7O[C@H](CO)[C@@H](O)[C@H](O[C@@H]8OC[C@@H](O)[C@H](O)[C@H]8O)[C@H]7O[C@@H]7O[C@H](CO)[C@@H](O)[C@H](O)[C@H]7O)[C@H](O)[C@H]6O)CC[C@]5(C)[C@H]4CC[C@]3(C)[C@H]1[C@@H]2C [Tomatine] (2.5 µM) | 0
2 | CCCCNc1nc(N)c2[nH]c(=O)n(Cc3ccc(C)nc3)c2n1 (10 µM) | 0
3 | C[C@H](CCC(=O)O)C[C@H](C)C[C@H](C)C(=O)/C=C(\O)[C@H](C)C[C@H](C)C/C=C/[C@@H](C)[C@@H](O)[C@@H](C)[C@@H](O)C[C@@H]1CC[C@@](C)([C@H]2CC[C@@](C)([C@@H](C)O)O2)O1 [Ionomycin (calcium)] (2.5 µM) | 0
4 | CCOC(=O)c1c(/C(C#N)=C\N)c2ccc(Cl)c(Cl)c2n1C (10 µM) | 0
5 | CC(=O)OC(C)(C)/C=C/C(=O)[C@](C)(O)[C@H]1[C@H](O)C[C@@]2(C)[C@@H]3CC=C4[C@@H](C=C(O)C(=O)C4(C)C)[C@]3(C)C(=O)C[C@]12C [Cucurbitacin E] (2.5 µM) | 0
6 | O=C1C=CC[C@@H]2[C@H]3CCCN4CCC[C@@H](CN12)[C@@H]34 [Sophocarpine (monohydrate)] (2.5 µM) | 0
7 | C=CC(=O)Nc1ccc2[nH]c(=O)n(C3CCN(Cc4ccc(-c5nc6cc[nH]c(=O)c6cc5-c5ccccc5)cc4)CC3)c2c1 [Borussertib] (10 µM) | 0
8 | O=C1C=CC[C@@H]2[C@H]3CCCN4CCC[C@@H](CN12)[C@@H]34 [Sophocarpine] (10 µM) | 0
9 | C=CC(=O)N[C@H]1C=C(C)c2c(-c3cnc4ccccc4c3)c3c(N)ncnc3n2C1 (10 µM) | 0
10 | Cn1cc(C2=C(c3cn(C4CCN(Cc5ccccn5)CC4)c4ccccc34)C(=O)NC2=O)c2ccccc21 [Enzastaurin] (10 µM) | 0
11 | CCN1CCN(C(=O)Cc2ccc(Nc3ncc(F)c(Nc4ccc(C(=O)Nc5ccccc5Cl)cc4)n3)cc2)CC1 (2.5 µM) | 0
12 | C[C@H]1CC[C@]2(NC1)O[C@H]1C[C@H]3[C@@H]4CC[C@H]5C[C@@H](O)CC[C@]5(C)[C@H]4CC[C@]3(C)[C@H]1[C@@H]2C [Tomatidine (hydrochloride)] (10 µM) | 0
13 | O=[N+]([O-])/C=C/c1ccc2c(c1)OCO2 (2.5 µM) | 0
14 | NCCc1cn(S(=O)(=O)c2c(Cl)nc3sccn23)c2ccccc12 (10 µM) | 0
15 | COc1ccc(N(C(=O)Oc2c(C)cccc2C)c2ccnc(Nc3ccc(N4CCN(C)CC4)cc3)n2)c(OC)c1 (2.5 µM) | 0
16 | Cc1ccccc1-n1c(Cn2cnc3c(N)ncnc32)nc2cccc(C)c2c1=O (10 µM) | 0
17 | Cc1[nH]ncc1-c1cc2nc([C@H]3CC4CCN3CC4)[nH]c(=O)c2s1 [(R)-Simurosertib] (10 µM) | 0
18 | CC1C(=O)OC2C(O)C34C5OC(=O)C3(OC3OC(=O)C(O)C34C(C(C)(C)C)C5O)C12O (stereo not given) [Ginkgolide C] (10 µM) | 0
19 | O=C(/C=C/c1ccccc1)OC[C@H]1O[C@@H](O[C@@H]2OC=C[C@H]3[C@H](O)[C@@H]4O[C@]4(CO)[C@@H]23)[C@H](O)[C@@H](O)[C@@H]1O [Picroside I] (10 µM) | 0
20 | CC1=C[C@]23C(=O)[C@@H](C=C(CO)[C@@H](O)[C@]2(O)[C@H]1O)[C@H]1[C@@H](C[C@H]3C)C1(C)C [Ingenol] (10 µM) | 0
21 | O=Cc1cn(Cc2ccc(Cl)cc2)c2ccccc12 [Oncrasin-1] (10 µM) | 0
22 | C[C@@H]1CC[C@H]2[C@@H](C)C(=O)O[C@@H]3O[C@@]4(C)CC[C@@H]1[C@]32OO4 [Artemisinin] (10 µM) | 0
23 | C[C@H](Nc1ncnc2[nH]cnc12)c1nc2ccc(F)cc2c(=O)n1-c1ccccc1 [Acalisib] (10 µM) | 0
24 | O=C1c2ccccc2C(=O)c2c1cccc2-c1cnn(C2CCNCC2)c1 [PDK4-IN-1 (hydrochloride)] (10 µM) | 0
25 | Cc1ccccc1-n1c(Cn2ncc3c(N)ncnc32)nc2cccc(C)c2c1=O (10 µM) | 0

Single entries from the entries so far.
number of time points, CC(=O)OC(C)(C)/C=C/C(=O)[C@](C)(O)[C@H]1[C@H](O)C[C@@]2(C)[C@@H]3CC=C4[C@@H](C=C(O)C(=O)C4(C)C)[C@]3(C)C(=O)C[C@]12C [Cucurbitacin E] (2.5 µM) reads 0
number of time points, O=Cc1cn(Cc2ccc(Cl)cc2)c2ccccc12 [Oncrasin-1] (10 µM) reads 0
